# According to the supplement of paper PMC8728848:
# Some of the results follow.
# B1: PX14379D-pdi-530-26-530 (Parabacteroides distasonis) (protein)
# chain: DETVYDKLPADDFGQSTAELNALIGNSHNTMKKFWTEYMHLSECSGSMAVTPTRRGGDWYDGGQYREIYMHTWTSQTSRVKSAWKAATEAIGTCNEAIRKLQNSEILTEEEKAQDVADLRGVRAFWIYVMMDYWGNIPLLTEFHPTDKVFPGNSSRQEVFDWLIQEVEEIKDICPPATTENYGSFTQGAAYSLLAKLYLNAEAWGVTFSGNAYQKVIDNCDKVMAMGYILEPNWKDNFSVTNENSKEAILAATFSSSDTGNDGNVKNELHNNTLHYKDYLSLGITASGTWNGICAQPEYVRLFDEEDARLDGTFLTGLMIDKSTGKPIMTDHNNELNHTIDVNMIPGMEYDGTNWSAVEQHDGARCFKWEFASDLTSSMGNDFHIFRLADIYLMKAEALLRGGGSVSEATALVNTIRERGYGNSDHNYATVTLKEVQLERRLELAWEVYSRQDDIRFGCFTTGMWPQSNCERKADDYLKLLPVSQDAWQVNPNLKQNPGYAAFSK
# Columns and labels:
# Assay in all cases: glycan array binding signal (z-score within array); higher = stronger binding
# Conditions in all cases: glycan notation: IUPAC condensed, linker removed
# [1] = target: GlcNAc(b1-3)Man
# Summary of the method: (§1)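 The Consortium for Functional Glycomics database supplied 3228 glycan arrays, of which those lacking an available protein sequence were dropped. The binding signal, a within-array Z-score, was averaged across arrays of the same protein sequence and across linkers. Negative scores can be read as non-binding.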
# [2] = target: GlcNAc(b1-3)[GlcNAc(b1-4)][GlcNAc(b1-6)]GlcNAc
# Summary of the method: as §1
# [3] = target: GlcNAc(b1-3)[GlcNAc(b1-6)]Gal(b1-4)GlcNAc
# Summary of the method: as §1
# [4] = target: GlcNAc(b1-3)[GlcNAc(b1-6)]GalNAc
# Summary of the method: as §1
# [5] = target: GlcNAc(b1-4)Gal(b1-4)GlcNAc
# Summary of the method: as §1
# [6] = target: GlcNAc(b1-4)GlcNAc
# Summary of the method: as §1
# [7] = target: GlcNAc(b1-4)GlcNAc(b1-4)GlcNAc
# Summary of the method: as §1
# [8] = target: GlcNAc(b1-4)GlcNAc(b1-4)GlcNAc(b1-4)GlcNAc(b1-4)GlcNAc
# Summary of the method: as §1
# [9] = target: GlcNAc(b1-4)GlcNAc(b1-4)GlcNAc(b1-4)GlcNAc(b1-4)GlcNAc(b1-4)GlcNAc
# Summary of the method: as §1
# [10] = target: GlcNAc(b1-4)[GlcNAc(b1-6)]GalNAc
# Summary of the method: as §1
# [11] = target: GlcNAc(b1-6)Gal(b1-4)GlcNAc
# Summary of the method: as §1
# [12] = target: GlcNAc(b1-6)GalNAc
# Summary of the method: as §1
# [13] = target: GlcNAc6S(b1-3)Gal(b1-4)GlcNAc
# Summary of the method: as §1
# [14] = target: Kdn(a2-3)Gal(b1-3)GalNAc
# Summary of the method: as §1
# [15] = target: Kdn(a2-3)Gal(b1-3)GlcNAc
# Summary of the method: as §1
# [16] = target: Kdn(a2-3)Gal(b1-4)Glc
# Summary of the method: as §1
# [17] = target: Kdn(a2-3)Gal(b1-4)GlcNAc
# Summary of the method: as §1
# [18] = target: Kdn(a2-3)Gal(b1-4)[Fuc(a1-3)]GlcNAc
# Summary of the method: as §1
# [19] = target: Kdn(a2-6)Gal(b1-4)GlcNAc
# Summary of the method: as §1
# [20] = target: Man(a1-2)Man(a1-2)Man(a1-3)Man
# Summary of the method: as §1
# [21] = target: Man(a1-2)Man(a1-2)Man(a1-6)[Man(a1-3)]Man
# Summary of the method: as §1
# [22] = target: Man(a1-2)Man(a1-3)Man
# Summary of the method: as §1
# [23] = target: Man(a1-2)Man(a1-3)[Man(a1-2)Man(a1-6)]Man
# Summary of the method: as §1
# [24] = target: Man(a1-2)Man(a1-3)[Man(a1-2)Man(a1-6)]Man(a1-6)[Man(a1-2)Man(a1-2)Man(a1-3)]Man
# Summary of the method: as §1
# [25] = target: Man(a1-2)Man(a1-3)[Man(a1-2)Man(a1-6)]Man(a1-6)[Man(a1-2)Man(a1-2)Man(a1-3)]Man(b1-4)GlcNAc(b1-4)GlcNAc
# Summary of the method: as §1
# [26] = target: Man(a1-2)Man(a1-3)[Man(a1-6)]Man(a1-6)[Man(a1-2)Man(a1-3)]Man(b1-4)GlcNAc(b1-4)GlcNAc
# Summary of the method: as §1
# [27] = target: Man(a1-2)Man(a1-6)[Man(a1-3)]Man(a1-6)[Man(a1-2)Man(a1-2)Man(a1-3)]Man
# Summary of the method: as §1
# [28] = target: Man(a1-2)Man(a1-6)[Man(a1-3)]Man(a1-6)[Man(a1-2)Man(a1-2)Man(a1-3)]Man(b1-4)GlcNAc(b1-4)GlcNAc
# Summary of the method: as §1
# [29] = target: Man(a1-3)[Man(a1-6)]Man
# Summary of the method: as §1
# [30] = target: Man(a1-3)[Man(a1-6)]Man(a1-6)[Man(a1-2)Man(a1-3)]Man(b1-4)GlcNAc(b1-4)GlcNAc
# Summary of the method: as §1
# [31] = target: Man(a1-3)[Man(a1-6)]Man(a1-6)[Man(a1-3)]Man
# Summary of the method: as §1
# [32] = target: Man(a1-3)[Man(a1-6)]Man(a1-6)[Man(a1-3)]Man(b1-4)GlcNAc(b1-4)GlcNAc
# Summary of the method: as §1
# [33] = target: Man(a1-3)[Man(a1-6)]Man(b1-4)GlcNAc(b1-4)GlcNAc
# Summary of the method: as §1
# [34] = target: Man(a1-3)[Man(a1-6)]Man(b1-4)GlcNAc(b1-4)[Fuc(a1-6)]GlcNAc
# Summary of the method: as §1
# [35] = target: Man(a1-6)Man
# Summary of the method: as §1
# [36] = target: Man(b1-4)GlcNAc
# Summary of the method: as §1
# [37] = target: MurNAc(b1-4)GlcNAc
# Summary of the method: as §1
# [38] = target: Neu5Ac(a2-3)Gal
# Summary of the method: as §1
binder,measurement,setting,value
B1,glycan array binding signal (z-score),[1],0.193
same,glycan array binding signal (z-score),[2],1.15
same,glycan array binding signal (z-score),[3],0.025
same,glycan array binding signal (z-score),[4],-0.295
same,glycan array binding signal (z-score),[5],-0.445
same,glycan array binding signal (z-score),[6],0.044
same,glycan array binding signal (z-score),[7],-0.355
same,glycan array binding signal (z-score),[8],-1.09
same,glycan array binding signal (z-score),[9],-0.189
same,glycan array binding signal (z-score),[10],-0.589
same,glycan array binding signal (z-score),[11],0.646
same,glycan array binding signal (z-score),[12],0.12
same,glycan array binding signal (z-score),[13],0.56
same,glycan array binding signal (z-score),[14],-0.548
same,glycan array binding signal (z-score),[15],-0.752
same,glycan array binding signal (z-score),[16],1.04
same,glycan array binding signal (z-score),[17],0.132
same,glycan array binding signal (z-score),[18],0.342
same,glycan array binding signal (z-score),[19],-0.328
same,glycan array binding signal (z-score),[20],-0.399
same,glycan array binding signal (z-score),[21],0.299
same,glycan array binding signal (z-score),[22],1.14
same,glycan array binding signal (z-score),[23],0.011
same,glycan array binding signal (z-score),[24],-0.971
same,glycan array binding signal (z-score),[25],-0.057
same,glycan array binding signal (z-score),[26],-1.26
same,glycan array binding signal (z-score),[27],-0.013
same,glycan array binding signal (z-score),[28],-0.518
same,glycan array binding signal (z-score),[29],-0.539
same,glycan array binding signal (z-score),[30],-0.447
same,glycan array binding signal (z-score),[31],0.476
same,glycan array binding signal (z-score),[32],-0.474
same,glycan array binding signal (z-score),[33],-0.339
same,glycan array binding signal (z-score),[34],-0.773
same,glycan array binding signal (z-score),[35],1.65
same,glycan array binding signal (z-score),[36],-1.02
same,glycan array binding signal (z-score),[37],-1.1
same,glycan array binding signal (z-score),[38],-0.656

# 2 entries from above, set out differently.
binder | measurement | setting | value
B1 | glycan array binding signal (z-score) | [19] | -0.328
same | glycan array binding signal (z-score) | [20] | -0.399
